Test results as given in the supplement of paper PMC10849652.
The other results are listed elsewhere or left out.

Protein sequences, listed by entry. Tags and fused reporters are not part of them. Lines headed by an entry give the natural chain unless they say otherwise; changes in a name come on top.
UniProt P50552: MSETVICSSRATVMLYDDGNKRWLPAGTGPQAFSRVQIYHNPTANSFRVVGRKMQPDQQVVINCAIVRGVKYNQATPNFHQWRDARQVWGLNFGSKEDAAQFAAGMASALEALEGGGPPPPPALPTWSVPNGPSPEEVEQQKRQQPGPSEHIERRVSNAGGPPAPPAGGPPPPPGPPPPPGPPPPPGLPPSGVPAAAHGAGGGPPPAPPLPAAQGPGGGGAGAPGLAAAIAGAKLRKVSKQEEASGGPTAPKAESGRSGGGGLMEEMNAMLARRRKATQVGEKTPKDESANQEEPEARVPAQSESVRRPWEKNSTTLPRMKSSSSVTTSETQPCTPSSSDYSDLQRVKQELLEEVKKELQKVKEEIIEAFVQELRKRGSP
UniProt Q9P2Y5: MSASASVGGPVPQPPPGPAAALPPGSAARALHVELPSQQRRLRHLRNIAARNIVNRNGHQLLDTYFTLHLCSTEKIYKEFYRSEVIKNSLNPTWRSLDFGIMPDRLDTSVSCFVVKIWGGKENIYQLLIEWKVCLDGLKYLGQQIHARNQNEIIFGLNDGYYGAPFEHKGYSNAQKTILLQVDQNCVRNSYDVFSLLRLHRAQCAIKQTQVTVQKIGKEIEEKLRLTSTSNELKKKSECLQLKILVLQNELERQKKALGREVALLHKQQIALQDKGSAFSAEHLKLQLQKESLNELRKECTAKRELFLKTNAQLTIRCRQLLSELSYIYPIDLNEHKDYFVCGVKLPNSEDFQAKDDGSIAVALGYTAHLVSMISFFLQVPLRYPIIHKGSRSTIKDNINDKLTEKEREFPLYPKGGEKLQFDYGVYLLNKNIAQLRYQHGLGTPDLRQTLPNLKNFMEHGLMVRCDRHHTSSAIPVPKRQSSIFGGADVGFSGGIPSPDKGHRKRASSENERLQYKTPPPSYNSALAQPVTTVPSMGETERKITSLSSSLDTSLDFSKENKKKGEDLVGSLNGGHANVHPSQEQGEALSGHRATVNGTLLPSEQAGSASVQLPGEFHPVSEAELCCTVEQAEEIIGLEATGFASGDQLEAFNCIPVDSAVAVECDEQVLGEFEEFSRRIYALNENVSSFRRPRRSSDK
UniProt P15498: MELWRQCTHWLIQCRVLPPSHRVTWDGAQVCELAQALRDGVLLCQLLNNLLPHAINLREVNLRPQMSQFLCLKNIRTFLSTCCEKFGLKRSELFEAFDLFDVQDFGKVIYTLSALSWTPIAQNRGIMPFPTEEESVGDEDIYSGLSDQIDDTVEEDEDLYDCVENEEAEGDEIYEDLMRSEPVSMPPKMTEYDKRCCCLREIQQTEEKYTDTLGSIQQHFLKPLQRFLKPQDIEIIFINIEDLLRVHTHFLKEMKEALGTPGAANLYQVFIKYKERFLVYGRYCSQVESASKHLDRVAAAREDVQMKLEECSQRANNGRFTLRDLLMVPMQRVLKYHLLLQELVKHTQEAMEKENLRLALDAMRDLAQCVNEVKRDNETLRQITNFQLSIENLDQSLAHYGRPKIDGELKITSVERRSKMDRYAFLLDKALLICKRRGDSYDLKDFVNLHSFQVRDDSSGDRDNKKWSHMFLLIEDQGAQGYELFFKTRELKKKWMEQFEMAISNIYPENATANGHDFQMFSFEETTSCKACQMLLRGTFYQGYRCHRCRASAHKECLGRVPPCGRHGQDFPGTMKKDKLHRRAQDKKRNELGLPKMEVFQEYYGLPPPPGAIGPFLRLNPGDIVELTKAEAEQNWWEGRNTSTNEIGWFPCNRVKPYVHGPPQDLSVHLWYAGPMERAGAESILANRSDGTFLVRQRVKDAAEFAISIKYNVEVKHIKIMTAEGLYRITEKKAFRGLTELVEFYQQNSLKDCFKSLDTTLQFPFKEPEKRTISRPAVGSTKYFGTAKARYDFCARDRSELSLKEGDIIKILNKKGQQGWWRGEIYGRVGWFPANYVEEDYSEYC
UniProt Q93008, whole entry, looked up: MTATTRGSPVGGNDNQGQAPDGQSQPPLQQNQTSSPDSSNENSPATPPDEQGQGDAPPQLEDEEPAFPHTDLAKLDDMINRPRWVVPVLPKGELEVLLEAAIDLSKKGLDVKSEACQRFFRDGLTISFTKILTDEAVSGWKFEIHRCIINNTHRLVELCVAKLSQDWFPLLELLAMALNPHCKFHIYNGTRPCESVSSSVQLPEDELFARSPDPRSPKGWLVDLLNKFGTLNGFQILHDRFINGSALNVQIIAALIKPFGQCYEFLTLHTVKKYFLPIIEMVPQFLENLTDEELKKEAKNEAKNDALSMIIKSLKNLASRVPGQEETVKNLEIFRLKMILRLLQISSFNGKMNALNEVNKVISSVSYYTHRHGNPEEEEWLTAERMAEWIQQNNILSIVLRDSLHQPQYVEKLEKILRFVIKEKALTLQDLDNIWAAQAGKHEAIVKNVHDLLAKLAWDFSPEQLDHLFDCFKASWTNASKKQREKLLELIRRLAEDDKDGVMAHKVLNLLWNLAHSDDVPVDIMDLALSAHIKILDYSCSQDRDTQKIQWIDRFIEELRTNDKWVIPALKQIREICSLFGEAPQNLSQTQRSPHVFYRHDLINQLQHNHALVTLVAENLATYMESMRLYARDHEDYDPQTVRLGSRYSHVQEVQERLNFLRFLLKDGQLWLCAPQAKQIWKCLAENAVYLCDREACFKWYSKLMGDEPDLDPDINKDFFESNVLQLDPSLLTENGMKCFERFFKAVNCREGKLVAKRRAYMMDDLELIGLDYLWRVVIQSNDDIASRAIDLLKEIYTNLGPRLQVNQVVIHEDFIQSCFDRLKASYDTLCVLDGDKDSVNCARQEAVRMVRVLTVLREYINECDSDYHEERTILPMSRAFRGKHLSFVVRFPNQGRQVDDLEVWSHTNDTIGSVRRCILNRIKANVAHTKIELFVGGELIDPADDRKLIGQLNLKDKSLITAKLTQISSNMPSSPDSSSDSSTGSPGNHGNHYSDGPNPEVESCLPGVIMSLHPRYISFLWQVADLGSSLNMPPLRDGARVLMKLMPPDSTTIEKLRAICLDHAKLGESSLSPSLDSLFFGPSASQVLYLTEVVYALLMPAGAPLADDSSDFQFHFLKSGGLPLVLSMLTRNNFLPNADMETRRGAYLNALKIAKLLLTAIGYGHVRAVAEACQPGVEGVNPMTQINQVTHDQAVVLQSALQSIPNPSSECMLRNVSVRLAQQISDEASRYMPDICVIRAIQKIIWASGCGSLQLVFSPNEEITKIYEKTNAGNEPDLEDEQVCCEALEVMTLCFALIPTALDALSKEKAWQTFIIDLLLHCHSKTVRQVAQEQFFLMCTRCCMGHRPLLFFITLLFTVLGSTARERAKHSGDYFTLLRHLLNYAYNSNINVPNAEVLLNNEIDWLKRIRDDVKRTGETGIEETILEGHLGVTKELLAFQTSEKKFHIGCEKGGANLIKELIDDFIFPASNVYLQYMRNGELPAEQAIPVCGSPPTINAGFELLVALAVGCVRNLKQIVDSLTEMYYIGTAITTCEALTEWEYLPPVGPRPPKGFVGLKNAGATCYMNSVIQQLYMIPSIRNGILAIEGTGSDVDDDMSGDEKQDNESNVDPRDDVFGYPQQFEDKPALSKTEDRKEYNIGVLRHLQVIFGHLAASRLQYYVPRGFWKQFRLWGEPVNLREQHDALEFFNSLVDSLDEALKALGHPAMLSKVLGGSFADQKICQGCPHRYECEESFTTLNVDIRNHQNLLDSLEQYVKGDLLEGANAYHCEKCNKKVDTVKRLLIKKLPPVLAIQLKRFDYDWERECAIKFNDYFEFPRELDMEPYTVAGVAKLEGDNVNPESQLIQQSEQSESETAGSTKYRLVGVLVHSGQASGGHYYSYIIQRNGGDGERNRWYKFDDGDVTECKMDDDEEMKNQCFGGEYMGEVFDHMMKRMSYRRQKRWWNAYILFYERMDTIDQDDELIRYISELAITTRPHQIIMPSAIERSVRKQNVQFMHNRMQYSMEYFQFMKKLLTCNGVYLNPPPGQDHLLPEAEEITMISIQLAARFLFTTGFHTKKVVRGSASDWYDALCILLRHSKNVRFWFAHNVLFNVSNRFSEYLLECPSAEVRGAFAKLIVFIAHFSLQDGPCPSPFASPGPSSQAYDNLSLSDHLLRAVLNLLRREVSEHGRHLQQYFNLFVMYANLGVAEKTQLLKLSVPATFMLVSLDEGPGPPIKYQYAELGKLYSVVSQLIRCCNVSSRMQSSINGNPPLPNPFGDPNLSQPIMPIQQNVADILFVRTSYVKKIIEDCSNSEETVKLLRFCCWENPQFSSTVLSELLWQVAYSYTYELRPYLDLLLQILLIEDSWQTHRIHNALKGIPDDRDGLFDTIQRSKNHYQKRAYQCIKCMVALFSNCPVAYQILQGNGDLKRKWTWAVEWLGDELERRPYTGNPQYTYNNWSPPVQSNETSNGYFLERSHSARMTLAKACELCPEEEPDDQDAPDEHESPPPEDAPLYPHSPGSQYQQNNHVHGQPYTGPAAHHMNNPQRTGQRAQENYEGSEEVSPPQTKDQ
UniProt P08670, whole entry, looked up: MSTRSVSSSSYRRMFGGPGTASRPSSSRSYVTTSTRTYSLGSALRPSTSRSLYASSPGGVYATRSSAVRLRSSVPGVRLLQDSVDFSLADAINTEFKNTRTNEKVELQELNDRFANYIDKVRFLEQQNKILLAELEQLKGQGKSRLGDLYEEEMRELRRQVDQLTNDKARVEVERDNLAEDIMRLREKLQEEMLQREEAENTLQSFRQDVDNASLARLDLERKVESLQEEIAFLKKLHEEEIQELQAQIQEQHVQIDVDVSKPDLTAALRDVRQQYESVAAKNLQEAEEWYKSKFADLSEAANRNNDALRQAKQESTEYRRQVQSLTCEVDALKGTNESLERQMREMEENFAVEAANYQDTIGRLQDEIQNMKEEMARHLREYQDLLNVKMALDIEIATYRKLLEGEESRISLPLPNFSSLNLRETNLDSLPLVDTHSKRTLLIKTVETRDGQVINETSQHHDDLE
UniProt O60763: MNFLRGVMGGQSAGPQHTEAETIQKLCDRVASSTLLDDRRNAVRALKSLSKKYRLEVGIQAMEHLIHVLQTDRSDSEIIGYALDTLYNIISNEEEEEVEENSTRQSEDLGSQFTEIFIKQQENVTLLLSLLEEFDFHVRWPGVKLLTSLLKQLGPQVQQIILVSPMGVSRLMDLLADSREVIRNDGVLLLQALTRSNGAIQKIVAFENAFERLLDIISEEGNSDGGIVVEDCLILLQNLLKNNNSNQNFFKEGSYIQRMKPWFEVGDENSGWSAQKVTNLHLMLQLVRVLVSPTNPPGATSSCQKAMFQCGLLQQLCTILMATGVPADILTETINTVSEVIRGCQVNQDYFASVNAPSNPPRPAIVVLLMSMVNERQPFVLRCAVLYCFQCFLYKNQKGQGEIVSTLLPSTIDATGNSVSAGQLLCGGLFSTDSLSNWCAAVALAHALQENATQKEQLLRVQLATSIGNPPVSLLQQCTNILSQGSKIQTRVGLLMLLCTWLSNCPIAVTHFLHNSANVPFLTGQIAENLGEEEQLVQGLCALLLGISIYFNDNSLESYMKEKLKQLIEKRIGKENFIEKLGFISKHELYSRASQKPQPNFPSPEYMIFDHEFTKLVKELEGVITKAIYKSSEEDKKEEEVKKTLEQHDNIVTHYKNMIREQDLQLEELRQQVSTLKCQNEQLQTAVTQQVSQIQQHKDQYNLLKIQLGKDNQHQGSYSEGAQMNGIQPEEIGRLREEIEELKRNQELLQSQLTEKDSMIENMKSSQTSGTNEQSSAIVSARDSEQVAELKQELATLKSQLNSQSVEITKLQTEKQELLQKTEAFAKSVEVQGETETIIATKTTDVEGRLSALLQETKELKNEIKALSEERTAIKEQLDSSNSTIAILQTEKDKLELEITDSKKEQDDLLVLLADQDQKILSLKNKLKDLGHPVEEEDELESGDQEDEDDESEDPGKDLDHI
UniProt P61960, whole entry, looked up: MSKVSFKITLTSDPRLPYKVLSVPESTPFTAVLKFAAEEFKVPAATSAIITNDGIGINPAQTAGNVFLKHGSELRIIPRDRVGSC
UniProt Q14119: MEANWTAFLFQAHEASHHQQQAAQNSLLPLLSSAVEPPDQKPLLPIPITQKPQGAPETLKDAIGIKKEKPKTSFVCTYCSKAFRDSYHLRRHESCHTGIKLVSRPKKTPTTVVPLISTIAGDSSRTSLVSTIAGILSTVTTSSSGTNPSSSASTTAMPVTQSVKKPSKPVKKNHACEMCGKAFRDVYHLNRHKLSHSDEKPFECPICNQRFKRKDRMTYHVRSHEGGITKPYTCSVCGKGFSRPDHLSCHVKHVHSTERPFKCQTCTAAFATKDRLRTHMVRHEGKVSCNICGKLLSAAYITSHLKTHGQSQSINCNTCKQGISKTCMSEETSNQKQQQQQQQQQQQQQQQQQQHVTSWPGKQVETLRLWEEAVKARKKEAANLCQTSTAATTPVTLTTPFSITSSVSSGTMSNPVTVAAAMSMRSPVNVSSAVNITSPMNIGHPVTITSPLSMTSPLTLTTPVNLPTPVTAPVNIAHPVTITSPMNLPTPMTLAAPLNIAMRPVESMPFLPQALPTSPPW

How the values were obtained:
Assay in all cases: log2 fold change, soluble protein after heating vs DMSO (PISA); higher = thermal stabilisation; K562 lysate, 10 uM; active = over 0.2 and 3.5 SD of the protein, either way, in both replicates (recomputed)
[1] = compound: CS(=O)(=O)CCNCc1ccc(-c2ccc3ncnc(Nc4ccc(OCc5cccc(F)c5)c(Cl)c4)c3c2)o1 [lapatinib]
In short: (§1)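 K562 pellets were dounce-homogenised in PBS pH 7.4 containing 1 mM MgCl2, and the crude extract, at 1 mg/mL protein, was exposed to 10 μM compound for 30 min. Aliquots were heated for 3 min across 48°C-58°C, pooled, brought to 0.5% NP-40 at 4°C and spun at 21,000xg for 90 min, with the supernatant taken as soluble protein. TMTpro 16plex LC-MS/MS with equalised channel sums quantified that protein. Values are log-two fold changes in thermal stability relative to solvent controls, taken from duplicates.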

[2] = compound: CS(=O)(=O)N1CCN(Cc2cc3nc(-c4cccc5[nH]ncc45)nc(N4CCOCC4)c3s2)CC1 [pictilisib]
In short: as §1

[3] = compound: C[C@@H](Oc1cc(-c2cnn(C3CCNCC3)c2)cnc1N)c1c(Cl)ccc(F)c1Cl [crizotinib]
In short: as §1

[4] = compound: C[C@H](C1=CC=C(C=C1)C(=O)NC2=C3C=CNC3=NC=C2)N
In short: as §1

[5] = compound: C[C@H](Nc1ncnc2nc[nH]c12)c1cc2cccc(Cl)c2c(=O)n1-c1ccccc1 [duvelisib]
In short: as §1

[6] = compound: Cc1cc(Nc2cc(CN3CCOCC3)c3nc(C)c(Cc4ccc(Cl)cc4F)n3n2)n[nH]1 [gandotinib]
In short: as §1

[7] = compound: Cc1cc(Nc2cc(N3CCN(C)CC3)nc(Sc3ccc(NC(=O)C4CC4)cc3)n2)n[nH]1 [tozasertib]
In short: as §1

[8] = compound: Cc1ccc(-n2nc(C(C)(C)C)cc2NC(=O)Nc2ccc(OCCN3CCOCC3)c3ccccc23)cc1 [doramapimod]
In short: as §1

[9] = compound: Cc1ccc(NC(=O)c2ccc(CN3CC[C@H](N(C)C)C3)c(C(F)(F)F)c2)cc1Nc1nccc(-c2cncnc2)n1 [bafetinib]
In short: as §1

[10] = compound: Cc1cccc(CC(=O)N2CCc3c2ccc(-c2cn(C)c4ncnc(N)c24)c3F)n1
In short: as §1

Row | Target | log2 fold change [1] | log2 fold change [2] | log2 fold change [3] | log2 fold change [4] | log2 fold change [5] | log2 fold change [6] | log2 fold change [7] | log2 fold change [8] | log2 fold change [9] | log2 fold change [10]
1 | VCL (UniProt P18206) | inactive: -0.002 | inactive: 0.017 | inactive: 0.012 | inactive: -0.094 | inactive: 0.026 | inactive: 0.042 | inactive: -0.002 | inactive: 0.014 | inactive: 0.002 | inactive: 0.014
2 | VAC14 (UniProt Q08AM6) | inactive: -0.034 | inactive: -0.005 | inactive: -0.047 | inactive: -0.028 | inactive: -0.004 | inactive: -0.069 | inactive: -0.005 | inactive: 0.037 | inactive: -0.036 | inactive: 0.067
3 | USP14 (UniProt P54578) | inactive: 0 | inactive: 0.009 | inactive: -0.002 | inactive: 0.108 | inactive: -0.003 | inactive: -0.024 | inactive: 0.014 | inactive: -0.006 | inactive: -0.014 | inactive: -0.029
4 | VDAC2 isoform 2 (UniProt P45880) | inactive: -0.009 | inactive: -0.016 | inactive: -0.006 | inactive: -0.034 | inactive: 0.01 | inactive: 0.023 | inactive: 0.001 | inactive: -0.003 | inactive: 0.01 | inactive: -0.022
5 | VASP (UniProt P50552) | inactive: -0.006 | inactive: 0.004 | inactive: 0.007 | inactive: -0.017 | inactive: 0.047 | inactive: 0.005 | inactive: 0.019 | inactive: -0.004 | inactive: 0.136 | inactive: 0.009
6 | ULBP1 (UniProt Q9BZM6) | inactive: 0.039 | inactive: -0.026 | inactive: -0.037 | inactive: -0.168 | inactive: -0.021 | inactive: 0.049 | inactive: 0.008 | inactive: 0.057 | inactive: -0.034 | inactive: 0.097
7 | UVRAG (UniProt Q9P2Y5) | inactive: -0.042 | inactive: -0.001 | inactive: -0.05 | inactive: 0.02 | inactive: 0.131 | inactive: 0.11 | inactive: 0.037 | inactive: 0.019 | inactive: -0.006 | inactive: -0.022
8 | USP24 (UniProt Q9UPU5) | inactive: -0.019 | inactive: -0.032 | inactive: -0.044 | inactive: 0.018 | inactive: -0.009 | inactive: -0.11 | inactive: 0.005 | inactive: 0.017 | inactive: -0.03 | inactive: 0.015
9 | UROD (UniProt P06132) | inactive: 0.034 | inactive: -0.003 | inactive: 0.033 | inactive: -0.018 | inactive: 0.01 | inactive: 0.006 | inactive: -0.03 | inactive: 0 | inactive: 0.096 | inactive: -0.036
10 | UXT isoform 2 (UniProt Q9UBK9) | inactive: -0.018 | inactive: -0.073 | inactive: 0.003 | inactive: -0.018 | inactive: -0.006 | inactive: 0.084 | inactive: -0.053 | inactive: 0.012 | inactive: 0.089 | inactive: 0.065
11 | VAV1 (UniProt P15498) | inactive: 0 | inactive: 0.012 | inactive: -0.059 | inactive: -0.057 | inactive: 0.071 | inactive: -0.02 | inactive: 0.011 | inactive: -0.044 | inactive: -0.087 | inactive: 0.066
12 | UQCC1 (UniProt Q9NVA1) | inactive: 0.005 | inactive: -0.013 | inactive: 0.064 | inactive: 0.004 | inactive: 0.015 | inactive: 0.004 | inactive: -0.009 | inactive: -0.089 | inactive: 0.049 | inactive: -0.039
13 | USP38 (UniProt Q8NB14) | inactive: -0.062 | inactive: -0.031 | inactive: -0.068 | inactive: 0.004 | inactive: 0.011 | inactive: -0.125 | inactive: 0.036 | inactive: -0.024 | inactive: -0.269 | inactive: 0.019
14 | USP9X (UniProt Q93008) | inactive: -0.031 | inactive: -0.027 | inactive: -0.058 | inactive: -0.015 | inactive: -0.017 | inactive: -0.127 | inactive: 0.011 | inactive: 0.004 | inactive: -0.034 | inactive: 0.027
15 | VDAC2 (UniProt Q5JSD1) | inactive: 0.008 | inactive: -0.024 | inactive: -0.033 | inactive: 0.076 | inactive: -0.006 | inactive: -0.023 | inactive: -0.101 | inactive: -0.143 | inactive: 0.011 | inactive: -0.144
16 | USP25 (UniProt Q9UHP3) | inactive: -0.004 | inactive: -0.012 | inactive: -0.023 | inactive: 0.019 | inactive: 0 | inactive: -0.056 | inactive: -0.003 | inactive: 0.005 | inactive: -0.007 | inactive: -0.004
17 | VIM (UniProt P08670) | inactive: 0.023 | inactive: -0.01 | inactive: 0.038 | inactive: 0.027 | inactive: -0.051 | inactive: -0.054 | inactive: 0.054 | inactive: 0.02 | inactive: -0.037 | inactive: 0.004
18 | USO1 isoform 2 (UniProt O60763) | inactive: -0.014 | inactive: 0.008 | inactive: -0.014 | inactive: -0.005 | inactive: 0.003 | inactive: -0.023 | inactive: 0 | inactive: 0.054 | inactive: -0.013 | inactive: 0.016
19 | UNC93B1 (UniProt Q9H1C4) | inactive: -0.051 | inactive: 0.064 | inactive: 0.029 | inactive: -0.121 | inactive: -0.09 | inactive: 0.039 | inactive: 0.106 | inactive: -0.132 | inactive: -0.028 | inactive: 0.226
20 | UHRF1 isoform 2 (UniProt Q96T88) | inactive: 0.01 | inactive: -0.083 | inactive: -0.03 | inactive: -0.116 | inactive: 0.036 | inactive: -0.047 | inactive: 0.091 | inactive: 0.047 | inactive: 0.06 | inactive: 0.006
21 | UNK (UniProt Q9C0B0) | inactive: 0.03 | inactive: 0.03 | inactive: -0.021 | inactive: -0.016 | inactive: -0.006 | inactive: -0.017 | inactive: -0.002 | inactive: -0.03 | inactive: -0.052 | inactive: 0.077
22 | UGP2 (UniProt Q16851) | inactive: -0.021 | inactive: -0.002 | inactive: -0.001 | inactive: 0.004 | inactive: -0.011 | inactive: -0.009 | inactive: -0.028 | inactive: -0.027 | inactive: -0.015 | inactive: -0.014
23 | UGT8 (UniProt Q16880) | inactive: 0.114 | inactive: -0.101 | inactive: 0.019 | inactive: -0.169 | inactive: 0.085 | inactive: 0.031 | inactive: 0.021 | inactive: -0.038 | inactive: -0.064 | inactive: 0.024
24 | USP8 (UniProt P40818) | inactive: -0.011 | inactive: -0.048 | inactive: -0.009 | inactive: 0.002 | inactive: -0.023 | inactive: -0.077 | inactive: -0.013 | inactive: 0.001 | inactive: -0.026 | inactive: 0.017
25 | UFM1 (UniProt P61960) | inactive: 0.134 | inactive: 0.033 | inactive: 0.191 | active: 0.566 | inactive: 0.077 | inactive: -0.36 | inactive: -0.002 | inactive: 0.022 | inactive: 0.102 | inactive: -0.319
26 | UPRT (UniProt Q96BW1) | inactive: -0.133 | inactive: -0.033 | inactive: -0.029 | inactive: -0.016 | inactive: -0.013 | inactive: -0.035 | inactive: -0.019 | inactive: 0.044 | inactive: 0.014 | inactive: -0.016
27 | UNC119B (UniProt A6NIH7) | inactive: 0.024 | inactive: -0.016 | inactive: -0.01 | inactive: -0.11 | inactive: 0.049 | inactive: 0.075 | inactive: -0.056 | inactive: -0.007 | inactive: 0.077 | inactive: 0.022
28 | VAPA isoform 2 (UniProt Q9P0L0) | inactive: 0.003 | inactive: -0.007 | inactive: 0.008 | inactive: -0.154 | inactive: 0.017 | inactive: 0.129 | inactive: 0.025 | inactive: 0.033 | inactive: 0.056 | inactive: 0.142
29 | VEZF1 (UniProt Q14119) | inactive: 0 | inactive: 0.02 | inactive: -0.138 | inactive: -0.246 | inactive: 0.113 | inactive: 0.188 | inactive: 0.042 | inactive: 0.311 | inactive: 0.021 | inactive: -0.044

Another view of some results above.

| Row | Target | log2 fold change [1] | log2 fold change [2] | log2 fold change [3] | log2 fold change [4] | log2 fold change [5] | log2 fold change [6] | log2 fold change [7] | log2 fold change [8] | log2 fold change [9] | log2 fold change [10] |
| --- | --- | --- | --- | --- | --- | --- | --- | --- | --- | --- | --- |
| 3 | USP14 (UniProt P54578) | inactive: 0 | inactive: 0.009 | inactive: -0.002 | inactive: 0.108 | inactive: -0.003 | inactive: -0.024 | inactive: 0.014 | inactive: -0.006 | inactive: -0.014 | inactive: -0.029 |
| 9 | UROD (UniProt P06132) | inactive: 0.034 | inactive: -0.003 | inactive: 0.033 | inactive: -0.018 | inactive: 0.01 | inactive: 0.006 | inactive: -0.03 | inactive: 0 | inactive: 0.096 | inactive: -0.036 |
